From patent EP1730287B1 (Syngenta Participations AG, dated 2011)
These are yes or no findings as the source states them, for the method shown. Some results given as binding are weak or reduced against the parent protein; the word gives no strength. Sequences can lack the tags named with a protein. Each block holds one binder with its values, some of them ahead of it.

The chains behind the UniProt entries cited, without tags or fusion partners. Where a name states a change or a piece, a line headed by the entry shows the natural chain unless it says otherwise.
UniProt P0A7C2: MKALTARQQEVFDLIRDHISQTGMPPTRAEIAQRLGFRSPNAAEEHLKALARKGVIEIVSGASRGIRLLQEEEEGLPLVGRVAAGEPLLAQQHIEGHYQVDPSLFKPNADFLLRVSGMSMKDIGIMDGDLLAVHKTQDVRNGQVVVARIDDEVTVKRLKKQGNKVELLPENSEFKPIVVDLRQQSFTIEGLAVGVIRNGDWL
UniProt P93002: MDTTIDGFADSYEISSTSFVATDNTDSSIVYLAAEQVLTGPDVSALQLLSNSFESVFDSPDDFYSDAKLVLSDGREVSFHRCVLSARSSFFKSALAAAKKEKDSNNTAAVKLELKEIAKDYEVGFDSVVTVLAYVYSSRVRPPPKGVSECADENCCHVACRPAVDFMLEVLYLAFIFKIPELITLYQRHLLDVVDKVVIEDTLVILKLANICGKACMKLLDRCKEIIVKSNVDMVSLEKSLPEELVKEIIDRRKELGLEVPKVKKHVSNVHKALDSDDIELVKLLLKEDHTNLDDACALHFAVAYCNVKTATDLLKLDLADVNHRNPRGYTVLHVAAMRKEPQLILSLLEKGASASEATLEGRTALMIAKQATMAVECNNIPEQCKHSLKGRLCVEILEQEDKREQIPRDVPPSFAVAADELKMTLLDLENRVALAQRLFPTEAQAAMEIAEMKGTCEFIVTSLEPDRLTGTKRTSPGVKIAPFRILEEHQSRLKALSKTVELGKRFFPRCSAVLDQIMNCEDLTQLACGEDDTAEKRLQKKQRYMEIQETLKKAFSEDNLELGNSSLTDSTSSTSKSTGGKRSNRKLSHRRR

Experiments:
[1] = target: NIM1 bait of the two-hybrid screen (which of the three baits is not stated) (Arabidopsis) (UniProt P0A7C2+P93002); test: yeast two-hybrid screen (LexA bait, B42 prey library; Leu2 and LacZ reporters); bait not specified
[2] = target: NIM366-594 bait (C-terminal portion of NIM1, amino acids 366-594, fused to the LexA DNA binding domain) (Arabidopsis) (UniProt P0A7C2+P93002); test: yeast two-hybrid screen (LexA bait, B42 prey library; Leu2 and LacZ reporters)
[3] = target: full-length NIM1 bait (full length Arabidopsis NIM1 fused to the LexA DNA binding domain in pEG202) (Arabidopsis) (UniProt P0A7C2+P93002); test: as above

- binding [1]: binds
B1: NI19 clone (Arabidopsis NI19 cDNA clone from the pJG4-5 library, fused to the B42 transcriptional activation domain) (protein, not shown: large carriers)
chain: KKRQEEEERARVRRFPSFQPEDFIFMNKAEANNIEKAANESSSASNEYDGSKEKQEGSETNVCLDLNLSL

B2: NI16 clone (Arabidopsis NI16 cDNA clone from the pJG4-5 library, fused to the B42 transcriptional activation domain) (other, not shown: large carriers)
chain: MNNSLKKEERVEEDNGKSDGNRGKPSTEVVRTVTEEEVDEFFKILRRVHVATRTVAKVNGGVAEGELPSKKRKRSQNLGLRNSLDCNGVRDGEFDEINRVGLQGLGLDLNCKPEPDSVSLSL
notes: Prey of the yeast two-hybrid screen; also called NI16 protein
- binding [2]: binds
- binding [3]: binds
